In ChEMBL document CHEMBL1149382 (J Med Chem, 2006) one finds IC50 data, which are given here for 1 compound.

For the assay, the system named is Trypanosoma cruzi. Nature of the assay: Antiprotozoal activity against Trypanosoma cruzi epimastigotes. The class given is functional, organism-based.

Consider `CCCCc1oc2ccccc2c1C(=O)c1cc(I)c(OCCN(CC)CC)c(I)c1` [AMIODARONE], for which the midpoint of inhibition, the IC50, lay at 9 µM.

By IC50 is commonly meant the midpoint of a concentration-inhibition curve. A low value points to higher potency.
